Strings that start with PEPTIDE1 are HELM notation: dots part the residues, brackets hold end groups and non-standard residues.
Assay: general procedure: solution-phase peptide synthesis; BOP
Settings: HCl

| Substance | step yield (coupling step) | step yield (late stage modification step) |
| --- | --- | --- |
| Boc-Tyr-Val-ACHPA-Leu-Phe-NH2 | 66% | – |
| PEPTIDE1{[Tyr(O-AcOBzl)].V.[ACHPA].L.F.[am]}$$$$V2.0 | – | 65% |
| Boc-Tyr(OAcOBzl)-Val-ACHPA-Leu-Phe-NH2 | – | 72% |
| PEPTIDE1{[Boc].[Tyr(O-AcOH)].V.[ACHPA].L.F.[am]}$$$$V2.0 | – | 70% |
| Boc-Val-ACHPA-Leu-Phe-NH2 | 84% | – |
| PEPTIDE1{[Tyr(O-AcOH)].V.[ACHPA].L.F.[am]}$$$$V2.0 | – | 86% |

— patent US5126326A (Bio-Mega, Inc., priority 1989, dated 1992)
